Reference: PubChem BioAssay AID1487 (National Center for Advancing Translational Sciences (NCATS), 2009)
The list shows a part of the results. Shown are side measurements of this screen, not its main read-out; they come without a call. Most of these compounds were active or inconclusive in the main read-out, so they are no random draw. Words in brackets tell the shape of the fitted curve; partial curves, single points and poor fits give uncertain potencies.

Test: qHTS Assay for Modulators of Lamin A Splicing
Settings: HeLa LMNA splicing GFP/RFP minigene ratio, 48 h
Source text: NCGC Assay Overview: Hutchinson-Gilford Progeria Syndrome (HGPS) is a pediatric premature aging disease caused by a spontaneous mutation in the lamin A/C (LMNA) gene. The mutation activates a cryptic splice site in the LMNA pre-mRNA which results in production of a pre-lamin A protein that cannot be processed properly. The mutant protein accumulates in the nucleus and negatively affects numerous cellular functions. Correction of the splicing defect in HGPS patient cells using a targeted oligonucleotide (exo11) leads to reversal of the cellular disease phenotypes. To identify small molecule modulators of aberrant LMNA splicing, a homogenous assay was constructed in HeLa cells that used a GFP containing minigene to report on correction of aberrant splicing in lamin A and a RFP (DsRed2) to report on cell viability, uniformity and nonspecific effects on the assay signal. This assay was adapted to laser-scanning microplate cytometry (Acumen, TTP Labtech) where miniaturization of the assay to a 1,536-well plate format was possible. References: Bowen, W. P.; Wylie, P. G. Application of Laser-Scanning Fluorescence Microplate Cytometry in High Content Screening. Assay Drug Dev Technol 2006;4:209-221. Scaffidi P, Misteli T. Reversal of the cellular phenotype in the premature aging disease Hutchinson-Gilford progeria syndrome. Nat.
NCGC Assay Protocol Summary: Reagents/Controls: Stable clones expressing DsRed2 and lamin A-EGFP were generated by Cell and Molecular Technologies in S3 HeLa cells. HeLa cells were prepared for the assay when they were 70-90% confluent. The cells were counted and resuspended in Opti-MEM I (no phenol red; Gibco), 2% FBS, 1% penicillin/ streptomycin (Gibco) at concentration of 120 cells/uL concentration. The suspension was passed through a Falcon basket filter with pore size 40um (Beckton Dickson). Control titrations: column […] 1536-well plate contained a sixteen point titration (1:2 dilutions) in duplicate of ancitabine (Sigma: A8598) beginning at 40 uM final concentration. Column 2 contained a sixteen point titration (1:2 dilutions) of cycloheximide beginning at 1.4 mM final concentration. Column 3 contained ancitabine at 40 uM and column 4 contained was the vehicle control (0.5% DMSO final concentration). Assay Steps: 5 uL of HeLa cells were plated in Aurora LoBase black clear bottom (cyclic-olefin polymer) 1536-well plates at a final density of 600 cells/well. Controls and library compounds were added with a 1536-well pin array using the Kalypsys pin-tool. The plates were then incubated for 48 hrs in a cell-culture incubator (37 °C; 5% CO2, 98% humidity). Following incubation the plates were read on the Acumen Explorer using the 488 nm laser. Data was collected on objects between 10 and 100 um in size. Cell objects were defined by a 15 um width x 10 um depth filter. The ratio of the total object intensity in PMT1 (500-530 nm emission; GFP) over PMT3 (575-640 nm emission; RFP) was calculated for analysis. Keywords: NIH Roadmap, MLSCN, MLI, MLSMR, qHTS, NCGC, lamin A, Progeria, RNA splicing.

[1] = measured here: GFP splicing reporter channel
[2] = measured here: RFP viability control channel

Row | Compound | AC50 [1] | AC50 [2]
1 | Cc1ccc(C)c(N2CCN(C(=O)c3cc(S(=O)(=O)N4CCC(C)CC4)cn3C)CC2)c1 | 0.141 µM [falling, single point] | 
2 | CCOc1ccc(C2NC(=O)C(C#N)=C(S)N2c2cccc(C)c2)cc1OC (stereo unspecified) |  | 35.5 µM [falling, partial curve, poor fit]
3 | O=C(OCc1cc(=O)n2cc(Br)ccc2n1)c1ccc(Cl)c(S(=O)(=O)NCc2ccccc2)c1 | 1.78 µM [rising, partial curve] | 0.282 µM [rising, full curve, poor fit]
4 | CC(C)c1ccc(-n2cccc2/C=C2/C(=N)N3C=CSC3=NC2=O)cc1 | 35.5 µM [rising, single point] | 35.5 µM [rising, single point]
5 | COC(=O)N/N=C\C=C\c1ccc2c(c1)OCO2 |  | 0.0794 µM [rising, full curve, poor fit]
6 | COc1ccc2oc(=O)c(-c3cn4c(n3)sc3cc(F)ccc34)cc2c1 | 0.02 µM [rising, full curve] | 
7 | CCOc1ccc(/C=N/NC(=O)CN2CCCCCCC2)cc1 | 11.2 µM [falling, partial curve, poor fit] | 
8 | CCCCCOc1ccc(CSc2ncn[nH]2)cc1 |  | 31.6 µM [rising, single point]
9 | CCCn1c2ccccc2c2cnn(CC(=O)N(Cc3ccccc3)C(C)C)c(=O)c21 | 22.4 µM [falling, single point] | 20 µM [falling, single point]
10 | N#CNC(=Nc1cccc(F)c1)SCc1ccccc1F |  | 11.2 µM [rising, partial curve]
11 | O=S(=O)(CCc1nc2ccccc2[nH]1)c1ccc(Br)cc1 |  | 22.4 µM [rising, single point]
12 | CC1(C)C(=O)N(CCN2CCC(C(=O)c3ccc(F)cc3)CC2)c2ccccc21 | 22.4 µM [falling, single point] | 14.1 µM [falling, single point]
13 | CC(=O)Nc1cccc(OCC(=O)NCCC2=CCCCC2)c1 | 0.0316 µM [falling, full curve, poor fit] | 0.0282 µM [falling, partial curve, poor fit]
14 | Cc1nnnn1/C(=C\c1ccccc1)C(=O)OCC(=O)N(C)C1CCS(=O)(=O)C1 (stereo unspecified) |  | 0.02 µM [falling, full curve, poor fit]
15 | Cc1nc2ccccn2c1C(=O)NNS(=O)(=O)c1ccc(C(C)(C)C)cc1 | 5.62 µM [rising, partial curve] | 3.98 µM [rising, full curve]
16 | Cc1ccc2nc(CN3CCN(C(=O)Nc4ccc(C)c(F)c4)CC3)oc2c1 | 0.0708 µM [rising, full curve, poor fit] | 
17 | CC(c1n[nH]c(=S)n1-c1ccc(F)cc1)N1CCCCC1 (stereo unspecified) |  | 2.82 µM [falling, single point]
18 | Cc1ccccc1-c1ccc2ncnc(NCc3cccnc3)c2c1 | 20 µM [falling, partial curve, poor fit] | 17.8 µM [falling, partial curve]
19 | CCCCN(C)CCCNC(=O)c1cc(-c2cccnc2)nc2ccccc12 | 0.01 µM [falling, full curve, poor fit] | 

Row | Compound | AC50 [1] | AC50 [2]
20 | O=C(/C=C/c1ccc(Cl)c([N+](=O)[O-])c1)c1cccnc1 | 0.708 µM [falling, full curve, poor fit] | 5.62 µM [falling, single point]
21 | CCC1=Nc2cc(C(=O)NCc3ccc(C)cc3)ccc2Sc2ccc(C)cc21 | 0.708 µM [rising, full curve, poor fit] | 7.08 µM [rising, partial curve]
22 | N#CCC(CNc1ncc(C(F)(F)F)cc1Cl)OC(=O)c1cccc([N+](=O)[O-])c1 (stereo unspecified) |  | 35.5 µM [rising, single point]
23 | COc1cc2nc(/C=C/c3ccc(N(C)C)cc3)sc2cc1SC |  | 20 µM [rising, single point]
24 | O=C1NC(=O)/C(=C/c2ccccc2Oc2ccc(Cl)cc2)S1 |  | 20 µM [rising, single point]
25 | Cc1cc(C(=O)CSc2nc(N)cc(N)n2)c(C)n1-c1cccc(C(F)(F)F)c1 |  | 12.6 µM [rising, partial curve]
26 | Cc1ccc(C(=O)CSc2cc(C)nc(SCC(=O)c3ccccc3)n2)cc1 |  | 20 µM [rising, single point]
27 | O=C(CSc1nc2ccccc2o1)N1c2ccccc2Sc2ccc(C(F)(F)F)cc21 |  | 35.5 µM [rising, single point]
28 | Cc1cc(NN)nc(NS(=O)(=O)c2ccccc2Cl)n1 | 6.31 µM [falling, full curve] | 5.62 µM [falling, partial curve]
29 | COc1ccc(C2CC3(CC(C)(C)NC(SC)=N3)Oc3cc(O)cc(C)c32)cc1 (stereo unspecified) |  | 1.78 µM [rising, partial curve]
30 | Cc1ccc(N2CC(C(=O)Nc3ccc(S(=O)(=O)Nc4nccc(C)n4)cc3)CC2=O)cc1 (stereo unspecified) |  | 10 µM [falling, partial curve, poor fit]
31 | CCn1c(SCC(=O)c2cc(C)ccc2C)nc2cc(S(=O)(=O)N3CCOCC3)ccc21 | 15.8 µM [rising, single point] | 25.1 µM [rising, partial curve]
32 | Cc1ccc(NC(=O)C(=O)NCC(c2ccc3c(c2)OCO3)N2CCN(c3ccccc3)CC2)cc1 (stereo unspecified) |  | 0.02 µM [falling, full curve, poor fit]
33 | C=CCc1cc(C)ccc1OCCOCCC(C(=O)OCC)C(=O)OCC | 1.58 µM [falling, full curve] | 1.12 µM [falling, partial curve, poor fit]
34 | CC(C)N(Cc1nc(-c2ccc(Cl)cc2)no1)C(=O)c1cccs1 |  | 20 µM [rising, partial curve]
35 | Cc1ccc(C(=O)NNC(=O)c2cc3cc4ccccc4nc3s2)cc1 |  | 35.5 µM [falling, single point]
36 | CCCCn1c(SCC(=O)N2CCC(C)CC2)nc2ccsc2c1=O |  | 31.6 µM [rising, single point]
37 | CCN(CC)C(=O)C1CCCN(C(=S)Nc2cccc3ccccc23)C1 (stereo unspecified) |  | 31.6 µM [rising, single point]
38 | Cc1ccc(S(=O)(=O)N2CCC(=O)N(C(COCc3ccc(Cl)cc3)C(C)C)CC2)cc1 (stereo unspecified) |  | 17.8 µM [rising, single point]

Not a retest: entries from further up.
Row | Compound | AC50 [1] | AC50 [2]
11 | O=S(=O)(CCc1nc2ccccc2[nH]1)c1ccc(Br)cc1 |  | 22.4 µM [rising, single point]
12 | CC1(C)C(=O)N(CCN2CCC(C(=O)c3ccc(F)cc3)CC2)c2ccccc21 | 22.4 µM [falling, single point] | 14.1 µM [falling, single point]
13 | CC(=O)Nc1cccc(OCC(=O)NCCC2=CCCCC2)c1 | 0.0316 µM [falling, full curve, poor fit] | 0.0282 µM [falling, partial curve, poor fit]

Remaining list, next part:

Row | Compound | AC50 [1] | AC50 [2]
39 | O=C(NCCNC(=O)c1cc(OCC(F)(F)F)ccc1OCC(F)(F)F)Nc1cccc(C(F)(F)F)c1 | 11.2 µM [rising, single point] | 15.8 µM [rising, single point]
40 | CC(=O)Nc1c(C(=O)O)oc2ccc(Cl)cc12 | 2.51 µM [falling, partial curve, poor fit] | 
41 | Cc1nnc(N/N=C/c2ccc([N+](=O)[O-])cc2)n1N | 35.5 µM [falling, single point] | 
42 | Cc1cccn2c(=O)c(C=Nc3c(C)n(C)n(-c4ccccc4)c3=O)c(N3CCCC3)nc12 |  | 11.2 µM [rising, single point]
43 | Cc1ccc(-n2ncc3c(NCc4ccco4)ncnc32)c(C)c1 |  | 15.8 µM [rising, single point]
44 | COc1ccc(NC(=S)N2CCC(C(O)(c3ccccc3)c3ccccc3)CC2)cc1 |  | 14.1 µM [rising, single point]
45 | CCN(CC)C(=S)SCC(=O)NC12CC3CC(CC(C3)C1)C2 | 10 µM [rising, partial curve] | 12.6 µM [rising, partial curve]
46 | Cc1ccnn1CC(=O)N/N=C/c1cccs1 | 0.1 µM [rising, full curve, poor fit] | 0.126 µM [rising, full curve, poor fit]
47 | COc1cccc(-c2cc3nc4c(c(N5CCC6(CC5)OCCO6)n3n2)CCCC4)c1 | 17.8 µM [rising, partial curve, poor fit] | 20 µM [rising, single point]
48 | CCC(=O)NC(=S)Nc1ccc(NC(=O)c2ccco2)cc1 | 6.31 µM [rising, single point] | 
49 | Cc1ccccc1OCCC(=O)Nc1cccc(S(=O)(=O)Nc2ccccc2Cl)c1 | 25.1 µM [rising, single point] | 25.1 µM [rising, partial curve]
50 | N#CC1=C(N)Oc2c(ccc3ccccc23)C1c1ccsc1 (stereo unspecified) | 1.41 µM [falling, full curve] | 1.41 µM [falling, full curve]
51 | CC1(C)Cc2ccccc2-c2n[nH]c(=S)n21 |  | 35.5 µM [falling, single point]
52 | CSc1nc(N)c(C#N)c(-c2ccc(Cl)cc2)c1C#N |  | 0.0224 µM [falling, full curve, poor fit]
53 | Cc1cccc(CNc2nc(-c3ccc(C(=O)N(C)C)cc3)nc3ccccc23)c1 | 22.4 µM [falling, single point] | 11.2 µM [rising, partial curve]
54 | C=CCn1c(SCC(=O)c2cc(C)n(C(C)COC)c2C)nc2sc(C)c(C)c2c1=O (stereo unspecified) |  | 31.6 µM [rising, single point]
55 | O=C(COc1ccccc1)NCC(=O)N/N=C/c1ccco1 |  | 28.2 µM [falling, partial curve, poor fit]
56 | CCOc1cc(NC(=S)NC)c(OCC)cc1NC(=O)c1ccco1 | 0.0355 µM [falling, full curve, poor fit] | 0.0224 µM [falling, full curve, poor fit]
